# In the supplement of paper PMC10849652:
# Chains of the proteins cited; added tags and fusions are not shown. Lines headed by an entry give the natural chain unless they say otherwise; changes in a name come on top.
# UniProt Q08752, whole entry, looked up: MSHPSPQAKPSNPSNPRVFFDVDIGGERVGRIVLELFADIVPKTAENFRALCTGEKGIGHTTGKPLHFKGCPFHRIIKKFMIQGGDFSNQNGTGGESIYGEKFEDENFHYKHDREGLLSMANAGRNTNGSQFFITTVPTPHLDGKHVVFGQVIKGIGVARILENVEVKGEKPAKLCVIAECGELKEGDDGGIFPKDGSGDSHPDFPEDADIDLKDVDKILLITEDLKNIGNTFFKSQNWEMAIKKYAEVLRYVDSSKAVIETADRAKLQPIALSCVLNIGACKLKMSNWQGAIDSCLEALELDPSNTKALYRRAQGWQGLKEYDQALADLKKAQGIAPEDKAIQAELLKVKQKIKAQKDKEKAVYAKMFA
# UniProt Q92871: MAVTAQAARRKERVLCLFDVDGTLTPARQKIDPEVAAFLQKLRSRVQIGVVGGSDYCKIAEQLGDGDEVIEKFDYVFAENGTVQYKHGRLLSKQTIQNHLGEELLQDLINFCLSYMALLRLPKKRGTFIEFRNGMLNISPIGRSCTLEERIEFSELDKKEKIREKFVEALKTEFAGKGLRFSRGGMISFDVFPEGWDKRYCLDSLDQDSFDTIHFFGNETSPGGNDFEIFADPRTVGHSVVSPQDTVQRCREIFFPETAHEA
# UniProt Q15054: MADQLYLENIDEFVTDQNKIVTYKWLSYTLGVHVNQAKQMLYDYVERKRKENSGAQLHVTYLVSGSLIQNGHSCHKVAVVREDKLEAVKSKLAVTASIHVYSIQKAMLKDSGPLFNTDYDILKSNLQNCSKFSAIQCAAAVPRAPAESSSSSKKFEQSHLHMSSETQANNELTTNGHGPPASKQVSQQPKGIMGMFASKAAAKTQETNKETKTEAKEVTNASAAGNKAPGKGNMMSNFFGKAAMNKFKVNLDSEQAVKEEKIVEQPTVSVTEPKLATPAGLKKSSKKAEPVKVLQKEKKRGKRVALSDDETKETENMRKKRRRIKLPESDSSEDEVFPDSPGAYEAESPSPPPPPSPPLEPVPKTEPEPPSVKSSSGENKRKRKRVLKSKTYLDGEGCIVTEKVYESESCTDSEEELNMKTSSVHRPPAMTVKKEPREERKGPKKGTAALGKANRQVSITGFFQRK
# UniProt Q9UNP9: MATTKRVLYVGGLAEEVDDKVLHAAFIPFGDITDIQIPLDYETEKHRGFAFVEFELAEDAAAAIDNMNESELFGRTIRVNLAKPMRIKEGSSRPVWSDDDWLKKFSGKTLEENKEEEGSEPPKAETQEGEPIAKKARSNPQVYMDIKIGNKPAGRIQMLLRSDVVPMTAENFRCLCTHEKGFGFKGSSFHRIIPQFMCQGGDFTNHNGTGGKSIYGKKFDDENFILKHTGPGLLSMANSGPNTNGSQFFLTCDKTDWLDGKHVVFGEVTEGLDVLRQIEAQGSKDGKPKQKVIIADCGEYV
# UniProt P54098: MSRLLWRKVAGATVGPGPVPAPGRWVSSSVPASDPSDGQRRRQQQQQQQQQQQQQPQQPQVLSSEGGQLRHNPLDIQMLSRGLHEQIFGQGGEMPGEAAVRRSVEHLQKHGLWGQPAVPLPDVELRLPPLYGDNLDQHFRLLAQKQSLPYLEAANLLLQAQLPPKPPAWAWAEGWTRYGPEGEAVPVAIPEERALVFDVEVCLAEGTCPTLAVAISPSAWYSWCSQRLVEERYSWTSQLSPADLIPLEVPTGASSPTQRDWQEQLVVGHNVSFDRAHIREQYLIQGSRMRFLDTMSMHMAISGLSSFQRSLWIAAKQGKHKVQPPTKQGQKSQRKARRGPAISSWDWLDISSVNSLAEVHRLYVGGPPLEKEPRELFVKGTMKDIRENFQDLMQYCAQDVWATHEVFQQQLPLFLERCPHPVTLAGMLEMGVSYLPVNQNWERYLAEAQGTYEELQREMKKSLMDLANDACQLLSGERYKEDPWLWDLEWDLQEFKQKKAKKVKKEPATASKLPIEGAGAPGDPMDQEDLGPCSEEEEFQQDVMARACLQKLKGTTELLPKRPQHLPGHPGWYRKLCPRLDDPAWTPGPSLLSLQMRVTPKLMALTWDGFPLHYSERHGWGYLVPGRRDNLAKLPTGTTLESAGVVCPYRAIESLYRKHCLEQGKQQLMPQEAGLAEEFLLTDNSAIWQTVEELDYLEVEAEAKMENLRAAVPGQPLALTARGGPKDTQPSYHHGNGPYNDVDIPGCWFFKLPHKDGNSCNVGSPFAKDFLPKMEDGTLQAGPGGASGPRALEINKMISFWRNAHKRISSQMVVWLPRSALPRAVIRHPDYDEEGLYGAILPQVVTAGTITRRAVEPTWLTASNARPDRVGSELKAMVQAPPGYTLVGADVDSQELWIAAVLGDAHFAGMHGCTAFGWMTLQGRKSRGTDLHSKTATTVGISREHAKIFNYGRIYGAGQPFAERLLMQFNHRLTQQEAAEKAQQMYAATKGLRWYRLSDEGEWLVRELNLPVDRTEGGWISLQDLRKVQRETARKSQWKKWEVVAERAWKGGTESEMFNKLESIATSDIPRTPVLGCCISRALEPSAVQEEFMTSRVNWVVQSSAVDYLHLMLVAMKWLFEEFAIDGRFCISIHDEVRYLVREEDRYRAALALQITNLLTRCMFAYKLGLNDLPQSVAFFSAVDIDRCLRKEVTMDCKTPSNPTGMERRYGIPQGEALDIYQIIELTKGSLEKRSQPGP
# UniProt Q9NZ53: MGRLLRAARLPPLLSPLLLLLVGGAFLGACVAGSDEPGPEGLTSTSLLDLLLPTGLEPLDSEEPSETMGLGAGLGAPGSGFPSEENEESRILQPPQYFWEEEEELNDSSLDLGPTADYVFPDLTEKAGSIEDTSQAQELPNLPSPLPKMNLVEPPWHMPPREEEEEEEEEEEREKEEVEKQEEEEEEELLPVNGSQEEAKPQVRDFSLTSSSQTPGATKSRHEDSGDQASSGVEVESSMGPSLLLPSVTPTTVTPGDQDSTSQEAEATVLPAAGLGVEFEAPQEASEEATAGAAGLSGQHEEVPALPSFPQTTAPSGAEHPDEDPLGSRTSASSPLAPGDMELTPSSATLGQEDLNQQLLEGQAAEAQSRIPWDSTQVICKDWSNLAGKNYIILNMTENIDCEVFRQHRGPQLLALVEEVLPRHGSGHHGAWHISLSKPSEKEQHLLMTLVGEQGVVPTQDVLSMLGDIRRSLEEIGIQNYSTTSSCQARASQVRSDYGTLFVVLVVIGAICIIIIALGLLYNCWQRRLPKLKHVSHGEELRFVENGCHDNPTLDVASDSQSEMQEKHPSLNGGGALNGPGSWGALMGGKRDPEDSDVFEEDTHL
# UniProt Q14181: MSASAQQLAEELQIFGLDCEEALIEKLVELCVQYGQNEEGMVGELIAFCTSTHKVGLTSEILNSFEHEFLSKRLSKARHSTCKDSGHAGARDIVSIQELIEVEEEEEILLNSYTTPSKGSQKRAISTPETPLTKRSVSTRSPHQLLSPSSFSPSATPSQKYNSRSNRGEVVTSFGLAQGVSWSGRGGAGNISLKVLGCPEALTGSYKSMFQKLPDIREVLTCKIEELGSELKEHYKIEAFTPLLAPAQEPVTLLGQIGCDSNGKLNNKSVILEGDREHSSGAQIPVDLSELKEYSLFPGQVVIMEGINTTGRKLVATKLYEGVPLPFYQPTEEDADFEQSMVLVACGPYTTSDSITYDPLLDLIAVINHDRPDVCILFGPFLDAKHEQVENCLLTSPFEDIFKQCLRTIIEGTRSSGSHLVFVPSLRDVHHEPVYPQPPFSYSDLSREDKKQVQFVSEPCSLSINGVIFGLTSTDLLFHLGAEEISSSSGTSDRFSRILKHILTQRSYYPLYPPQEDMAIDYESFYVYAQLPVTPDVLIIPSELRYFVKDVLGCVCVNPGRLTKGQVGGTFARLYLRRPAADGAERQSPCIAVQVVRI
# UniProt Q9BUI4: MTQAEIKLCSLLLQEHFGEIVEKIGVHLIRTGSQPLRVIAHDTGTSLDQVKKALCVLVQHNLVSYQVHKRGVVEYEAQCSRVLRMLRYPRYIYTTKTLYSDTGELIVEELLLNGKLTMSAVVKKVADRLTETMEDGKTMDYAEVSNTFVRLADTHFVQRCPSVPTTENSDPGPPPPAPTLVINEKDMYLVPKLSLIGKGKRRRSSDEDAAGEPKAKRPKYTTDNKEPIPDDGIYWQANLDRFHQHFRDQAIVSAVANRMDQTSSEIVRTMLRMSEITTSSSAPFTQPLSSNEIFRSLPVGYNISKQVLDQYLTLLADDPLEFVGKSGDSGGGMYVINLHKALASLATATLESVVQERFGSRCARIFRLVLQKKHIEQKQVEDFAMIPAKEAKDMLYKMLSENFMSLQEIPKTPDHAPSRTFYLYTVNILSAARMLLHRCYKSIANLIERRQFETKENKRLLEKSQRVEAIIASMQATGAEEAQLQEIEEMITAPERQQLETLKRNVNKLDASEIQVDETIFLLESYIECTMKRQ
# UniProt Q9Y4D7: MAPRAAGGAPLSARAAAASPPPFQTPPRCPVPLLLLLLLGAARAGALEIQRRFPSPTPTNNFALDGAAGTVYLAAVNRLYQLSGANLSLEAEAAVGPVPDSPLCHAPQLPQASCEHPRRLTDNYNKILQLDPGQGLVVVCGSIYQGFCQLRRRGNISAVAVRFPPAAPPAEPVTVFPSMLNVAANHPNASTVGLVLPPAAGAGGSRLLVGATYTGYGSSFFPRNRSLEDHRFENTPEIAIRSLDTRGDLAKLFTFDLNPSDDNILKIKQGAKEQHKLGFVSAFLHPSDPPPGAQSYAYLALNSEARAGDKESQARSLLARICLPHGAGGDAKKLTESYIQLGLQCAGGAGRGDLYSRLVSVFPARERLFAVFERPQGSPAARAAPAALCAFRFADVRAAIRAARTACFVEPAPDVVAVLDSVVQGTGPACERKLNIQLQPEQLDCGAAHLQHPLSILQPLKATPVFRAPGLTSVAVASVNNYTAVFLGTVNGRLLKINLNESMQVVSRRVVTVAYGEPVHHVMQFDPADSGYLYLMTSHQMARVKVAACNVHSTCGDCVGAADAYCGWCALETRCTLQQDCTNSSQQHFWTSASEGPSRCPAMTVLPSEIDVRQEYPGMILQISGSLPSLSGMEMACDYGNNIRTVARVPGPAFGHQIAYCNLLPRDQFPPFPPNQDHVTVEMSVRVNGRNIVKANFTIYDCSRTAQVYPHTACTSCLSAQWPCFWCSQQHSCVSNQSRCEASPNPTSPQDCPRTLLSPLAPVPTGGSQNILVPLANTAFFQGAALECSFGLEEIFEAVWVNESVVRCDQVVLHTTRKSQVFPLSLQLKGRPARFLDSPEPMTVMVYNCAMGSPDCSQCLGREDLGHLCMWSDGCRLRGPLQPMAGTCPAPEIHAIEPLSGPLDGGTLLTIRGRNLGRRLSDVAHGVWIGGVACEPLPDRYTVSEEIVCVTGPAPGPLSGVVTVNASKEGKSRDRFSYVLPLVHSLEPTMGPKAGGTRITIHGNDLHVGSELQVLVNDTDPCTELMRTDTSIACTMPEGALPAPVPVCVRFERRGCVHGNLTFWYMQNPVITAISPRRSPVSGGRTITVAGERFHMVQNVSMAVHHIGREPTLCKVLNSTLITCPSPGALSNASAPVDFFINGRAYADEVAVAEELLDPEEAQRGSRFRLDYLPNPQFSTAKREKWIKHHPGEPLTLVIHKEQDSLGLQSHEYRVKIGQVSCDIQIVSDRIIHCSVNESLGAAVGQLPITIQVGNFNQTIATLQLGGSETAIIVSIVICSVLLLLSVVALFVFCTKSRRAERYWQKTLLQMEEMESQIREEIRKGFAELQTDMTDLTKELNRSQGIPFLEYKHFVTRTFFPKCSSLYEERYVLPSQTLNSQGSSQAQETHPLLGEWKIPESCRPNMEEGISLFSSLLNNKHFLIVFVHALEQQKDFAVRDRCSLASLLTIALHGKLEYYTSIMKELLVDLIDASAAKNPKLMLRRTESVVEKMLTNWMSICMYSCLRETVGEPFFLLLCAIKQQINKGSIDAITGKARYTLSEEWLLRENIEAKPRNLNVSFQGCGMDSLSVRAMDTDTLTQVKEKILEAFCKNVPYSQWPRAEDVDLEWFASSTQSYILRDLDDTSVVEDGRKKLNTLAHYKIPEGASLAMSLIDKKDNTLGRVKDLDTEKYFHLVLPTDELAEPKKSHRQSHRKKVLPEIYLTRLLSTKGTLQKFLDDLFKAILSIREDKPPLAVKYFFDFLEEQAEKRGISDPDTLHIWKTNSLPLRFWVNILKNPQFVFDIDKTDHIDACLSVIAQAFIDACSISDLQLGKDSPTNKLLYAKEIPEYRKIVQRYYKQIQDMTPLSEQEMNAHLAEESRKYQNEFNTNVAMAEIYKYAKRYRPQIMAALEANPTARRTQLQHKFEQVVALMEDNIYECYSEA
# UniProt Q68D20: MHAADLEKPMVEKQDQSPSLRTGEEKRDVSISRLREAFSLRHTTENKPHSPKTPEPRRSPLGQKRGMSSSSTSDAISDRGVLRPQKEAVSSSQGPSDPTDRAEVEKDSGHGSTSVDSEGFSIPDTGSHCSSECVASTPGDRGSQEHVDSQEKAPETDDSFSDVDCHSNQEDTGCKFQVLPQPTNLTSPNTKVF
# The list shows a part of the results.
# Key:
# Assay in all cases: log2 fold change, soluble protein after heating vs DMSO (PISA); higher = thermal stabilisation; K562 lysate, 10 uM; active = over 0.2 and 3.5 SD of the protein, either way, in both replicates (recomputed)
# nilotinib = compound: Cc1cn(-c2cc(NC(=O)c3ccc(C)c(Nc4nccc(-c5cccnc5)n4)c3)cc(C(F)(F)F)c2)cn1 [nilotinib]
# How it was run: (§1)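 Following dounce homogenisation of K562 pellets in PBS pH 7.4 with 1 mM MgCl2, crude extract at 1 mg/mL protein was incubated for 30 min with 10 μM compound. Aliquots were then heated for 3 min over 48°C-58°C and pooled, NP-40 was added to 0.5% at 4°C, and soluble protein was recovered as the supernatant at 21,000xg for 90 min. Channel-sum-equalised TMTpro 16plex LC-MS/MS quantified this protein. Each value, from duplicates, is a log-two fold change in thermal stability relative to solvent controls.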
# [1] = compound: Cc1nc(Nc2n[nH]c3c2CN(C(=O)N[C@H](CN(C)C)c2ccccc2)C3(C)C)c2sccc2n1
# How it was run: as §1
# dasatinib = compound: Cc1nc(Nc2ncc(C(=O)Nc3c(C)cccc3Cl)s2)cc(N2CCN(CCO)CC2)n1 [dasatinib]
# How it was run: as §1
# [2] = compound: Cc1ncc(-c2ccnc(Nc3ccc(S(C)(=O)=O)cc3)n2)n1C(C)C
# How it was run: as §1
# [3] = compound: Cn1cc(-c2ccc3c(c2)CCN3C(=O)Cc2cccc(C(F)(F)F)c2)c2c(N)ncnc21
# How it was run: as §1
# quisinostat = compound: Cn1cc(CNCC2CCN(c3ncc(C(=O)NO)cn3)CC2)c2ccccc21 [quisinostat]
# How it was run: as §1
# tipifarnib = compound: Cn1cncc1[C@@](N)(c1ccc(Cl)cc1)c1ccc2c(c1)c(-c1cccc(Cl)c1)cc(=O)n2C [tipifarnib]
# How it was run: as §1
# [4] = compound: NC(=O)Nc1cc(-c2cccc(F)c2)sc1C(=O)N[C@H]1CCCNC1
# How it was run: as §1
# [5] = compound: NC(=O)c1cnc(N[C@@H]2CCCC[C@@H]2N)nc1Nc1cccc(-n2nccn2)c1
# How it was run: as §1
# [6] = compound: NC1(c2ccc(-c3nc4ccn5c(=O)[nH]nc5c4cc3-c3ccccc3)cc2)CCC1
# How it was run: as §1
# [7] = compound: NCC(=O)Nc1ccc(-n2nc(C(F)(F)F)cc2-c2ccc3c(ccc4ccccc43)c2)cc1
# How it was run: as §1
# vorinostat = compound: O=C(CCCCCCC(=O)Nc1ccccc1)NO [vorinostat]
# How it was run: as §1
# silmitasertib = compound: O=C(O)c1ccc2c(c1)nc(Nc1cccc(Cl)c1)c1ccncc12 [silmitasertib]
# How it was run: as §1
# [8] = compound: O=C1NC(=O)C(c2cnc3ccccn23)=C1c1cn2c3c(cc(F)cc13)CN(C(=O)N1CCCCC1)CC2
# How it was run: as §1
# entospletinib = compound: c1cn2cc(-c3ccc4cn[nH]c4c3)nc(Nc3ccc(N4CCOCC4)cc3)c2n1 [entospletinib]
# How it was run: as §1
Target,log2 fold change (nilotinib),log2 fold change [1],log2 fold change (dasatinib),log2 fold change [2],log2 fold change [3],log2 fold change (quisinostat),log2 fold change (tipifarnib),log2 fold change [4],log2 fold change [5],log2 fold change [6],log2 fold change [7],log2 fold change (vorinostat),log2 fold change (silmitasertib),log2 fold change [8],log2 fold change (entospletinib)
PPID (UniProt Q08752),inactive: 0,inactive: -0.007,inactive: -0.002,inactive: 0.013,inactive: 0.015,inactive: -0.015,inactive: 0.03,inactive: 0.028,inactive: 0.009,inactive: -0.001,inactive: 0,inactive: -0.116,inactive: 0.025,inactive: 0.008,inactive: 0.022
PMM1 (UniProt Q92871),inactive: 0.029,inactive: 0.098,inactive: -0.027,inactive: -0.015,inactive: -0.011,inactive: -0.049,inactive: 0,inactive: -0.018,–,inactive: -0.002,inactive: 0.072,inactive: -0.113,inactive: 0.009,inactive: 0.037,inactive: 0.009
PLXNA1 (UniProt Q9UIW2),inactive: 0.017,inactive: -0.018,inactive: 0.007,inactive: 0.038,inactive: -0.03,inactive: 0.017,inactive: 0,inactive: 0.016,inactive: 0.014,inactive: 0.02,inactive: -0.012,inactive: 0.043,inactive: -0.006,inactive: 0,inactive: -0.018
POLD3 (UniProt Q15054),inactive: 0.03,inactive: -0.014,inactive: -0.002,inactive: 0.029,inactive: 0.007,inactive: -0.049,inactive: 0.002,inactive: 0.013,inactive: 0.018,inactive: -0.027,inactive: 0.045,active: -0.335,inactive: -0.02,inactive: -0.03,inactive: 0.011
POLRMT (UniProt O00411),inactive: -0.015,inactive: 0.076,inactive: -0.028,inactive: 0.039,inactive: 0.075,inactive: 0,inactive: -0.042,inactive: -0.003,inactive: 0.012,inactive: 0.043,inactive: -0.01,inactive: -0.056,inactive: -0.032,inactive: 0.071,inactive: -0.004
PPIE (UniProt Q9UNP9),inactive: -0.027,inactive: 0.017,inactive: -0.017,inactive: -0.01,inactive: -0.016,inactive: -0.091,inactive: -0.003,inactive: -0.018,inactive: 0.04,inactive: -0.034,inactive: 0.024,inactive: 0.096,inactive: 0.035,inactive: -0.045,inactive: -0.036
POLG (UniProt P54098),inactive: -0.058,inactive: 0,inactive: 0.105,inactive: 0.019,inactive: -0.013,inactive: -0.277,inactive: -0.081,inactive: 0.016,inactive: 0.116,inactive: 0.166,inactive: 0.081,inactive: 0.004,inactive: -0.018,inactive: 0.131,inactive: 0.019
POLR2J (UniProt P52435),inactive: 0.052,inactive: -0.008,inactive: 0.01,inactive: 0.167,inactive: -0.027,inactive: 0.008,inactive: -0.03,inactive: 0.005,inactive: -0.117,inactive: -0.004,–,inactive: -0.051,inactive: -0.007,inactive: 0.128,inactive: -0.064
POTEKP (UniProt Q9BYX7),inactive: 1.59,inactive: -0.275,inactive: -0.472,inactive: 0.928,inactive: 0.815,inactive: -0.008,inactive: -0.049,inactive: 0.243,inactive: 0.947,inactive: 0.837,–,inactive: -0.001,inactive: 0.702,inactive: 1.05,–
POLR2M (UniProt P0CAP2),inactive: -0.033,inactive: -0.014,inactive: -0.032,inactive: 0.012,inactive: -0.056,inactive: -0.015,inactive: 0.007,inactive: 0.012,inactive: 0.002,inactive: 0.014,inactive: 0.034,inactive: 0,inactive: -0.029,inactive: -0.027,inactive: 0.076
POC5 (UniProt Q8NA72),inactive: 0.01,inactive: 0.058,inactive: -0.159,inactive: 0.09,inactive: -0.081,inactive: 0.007,inactive: 0.005,inactive: -0.005,inactive: -0.128,inactive: 0.034,inactive: -0.128,active: -0.36,inactive: -0.021,inactive: 0.02,inactive: -0.184
POLR2G (UniProt P62487),inactive: 0.01,inactive: -0.02,inactive: -0.024,inactive: 0.007,inactive: 0,inactive: 0.01,inactive: 0.007,inactive: 0.001,inactive: 0.011,inactive: -0.016,inactive: 0.001,inactive: 0.116,inactive: -0.043,inactive: -0.03,inactive: 0.014
PODXL2 (UniProt Q9NZ53),inactive: 0.043,inactive: 0.023,inactive: 0.296,inactive: 0.024,inactive: -0.044,inactive: -0.059,inactive: -0.055,inactive: 0.007,inactive: -0.148,inactive: 0.002,inactive: 0.045,inactive: 0.085,inactive: -0.132,inactive: 0.023,inactive: -0.162
PLXNB2 (UniProt O15031),inactive: -0.052,inactive: 0.019,inactive: -0.036,inactive: 0.013,inactive: 0.003,inactive: 0.016,inactive: -0.017,inactive: 0.042,inactive: -0.024,inactive: -0.006,inactive: 0.003,inactive: 0.033,inactive: 0.001,inactive: 0.019,inactive: -0.03
POLA2 (UniProt Q14181),inactive: 0.013,inactive: -0.005,inactive: 0,inactive: -0.033,inactive: -0.002,inactive: -0.028,inactive: 0.003,inactive: 0.009,inactive: -0.023,inactive: 0,inactive: -0.006,inactive: -0.089,inactive: 0.007,inactive: 0,inactive: 0.016
POLR3C (UniProt Q9BUI4),inactive: -0.006,inactive: 0.011,inactive: 0.024,inactive: 0.016,inactive: -0.017,inactive: -0.011,inactive: 0.015,inactive: 0.002,inactive: -0.022,inactive: -0.009,inactive: 0.017,inactive: 0.02,inactive: -0.04,inactive: -0.048,inactive: -0.014
PLXND1 (UniProt Q9Y4D7),inactive: -0.006,inactive: 0.043,inactive: -0.045,inactive: 0.092,inactive: 0.013,inactive: -0.093,inactive: 0.014,inactive: -0.047,–,inactive: 0.094,–,inactive: -0.132,inactive: 0.174,inactive: 0.018,–
POM121C (UniProt A8CG34),–,–,–,–,–,–,–,–,inactive: 0.022,inactive: -0.09,–,inactive: 0.077,inactive: -0.196,–,–
PMS2CL (UniProt Q68D20),–,–,–,–,–,inactive: -0.018,–,inactive: 0.055,inactive: -0.018,–,–,–,–,inactive: 0.11,–

# Record cards (already shown). Values in the order: log2 fold change (nilotinib) | log2 fold change [1] | log2 fold change (dasatinib) | log2 fold change [2] | log2 fold change [3] | log2 fold change (quisinostat) | log2 fold change (tipifarnib) | log2 fold change [4] | log2 fold change [5] | log2 fold change [6] | log2 fold change [7] | log2 fold change (vorinostat) | log2 fold change (silmitasertib) | log2 fold change [8] | log2 fold change (entospletinib)
# POM121C (UniProt A8CG34) in the list: – | – | – | – | – | – | – | – | inactive: 0.022 | inactive: -0.09 | – | inactive: 0.077 | inactive: -0.196 | – | –
# POLRMT (UniProt O00411) in the list: inactive: -0.015 | inactive: 0.076 | inactive: -0.028 | inactive: 0.039 | inactive: 0.075 | inactive: 0 | inactive: -0.042 | inactive: -0.003 | inactive: 0.012 | inactive: 0.043 | inactive: -0.01 | inactive: -0.056 | inactive: -0.032 | inactive: 0.071 | inactive: -0.004
